No constants are given. Whether binding was seen depends on the method and setting. For some of these results: Binding seen in cells or lysates may run through a third protein. For some of these results: Binding can be weak; no strength is given. For some of these results: Sequences can lack the tags named with a protein.
Columns and labels:
[1] = target: GST-ICA512extracellular (Homo sapiens (Human)); experiment: GST pull-down, SDS-PAGE and autoradiography
[2] = target: ICA512-TMF (rat) (UniProt Q63259); experiment: co-immunoprecipitation (title of the figure legend)
[3] = target: ICA512-TMF (rat) (UniProt Q63259); experiment: co-immunoprecipitation with rabbit anti-ICA512ecto from INS-1E cell extracts, anti-GFP blot

binding [1]	binding [2]	binding [3]	Binder
no binding	–	–	35S-ICA512601-979 (protein, 35S-methionine labelled) RQHARQQDKERLAALGPEGAHGDTTFEYQDLCRQHMATKSLFNRAEGPPEPSRVSSVSSQFSDAAQASPSSHSSTPSWCEEPAQANMDISTGHMILAYMEDHLRNRDRLAKEWQALCAYQAEPNTCATAQGEGNIKKNRHPDFLPYDHARIKLKVESSPSRSDYINASPIIEHDPRMPAYIATQGPLSHTIADFWQMVWESGCTVIVMLTPLVEDGVKQCDRYWPDEGASLYHVYEVNLVSEHIWCEDFLVRSFYLKNVQTQETRTLTQFHFLSWPAEGTPASTRPLLDFRRKVNKCYRGRSCPIIVHCSDGAGRTGTYILIDMVLNRMAKGVKEIDIAATLEHVRDQRPGLVRSKDQFEFALTAVAEEVNAILKALPQ
no binding	–	–	35S-ICA512700-979 (protein, 35S-methionine labelled) EDHLRNRDRLAKEWQALCAYQAEPNTCATAQGEGNIKKNRHPDFLPYDHARIKLKVESSPSRSDYINASPIIEHDPRMPAYIATQGPLSHTIADFWQMVWESGCTVIVMLTPLVEDGVKQCDRYWPDEGASLYHVYEVNLVSEHIWCEDFLVRSFYLKNVQTQETRTLTQFHFLSWPAEGTPASTRPLLDFRRKVNKCYRGRSCPIIVHCSDGAGRTGTYILIDMVLNRMAKGVKEIDIAATLEHVRDQRPGLVRSKDQFEFALTAVAEEVNAILKALPQ
–	binds	binds	ICA512-CCF-GFP (protein, not shown: large carriers; small tags and cut ends, C-terminal GFP fusion not carried in the letters) SQFSDAAQASPSSHSSTPSWCEEPAQANMDISTGHMILAYMEDHLRNRDRLAKEWQALCAYQAEPNTCATAQGEGNIKKNRHPDFLPYDHARIKLKVESSPSRSDYINASPIIEHDPRMPAYIATQGPLSHTIADFWQMVWESGCTVIVMLTPLVEDGVKQCDRYWPDEGASLYHVYEVNLVSEHIWCEDFLVRSFYLKNVQTQETRTLTQFHFLSWPAEGTPASTRPLLDFRRKVNKCYRGRSCPIIVHCSDGAGRTGTYILIDMVLNRMAKGVKEIDIAATLEHVRDQRPGLVRSKDQFEFALTAVAEEVNAILKALPQ
